# Results reported in the supplement of paper PMC8728848.
# The other results are listed elsewhere or left out.
# B1: Flo10 (Saccharomyces cerevisiae), P36170 (protein)
# chain: MPVAARYIFLTGLFLLSVANVALGTTEACLPAGEKKNGMTINFYQYSLKDSSTYSNPSYMAYGYADAEKLGSVSGQTKLSIDYSIPCNGASDTCACSDDDATEYSASQVVPVKRGVKLCSDNTTLSSKTEKRENDDCDQGAAYWSSDLFGFYTTPTNVTVEMTGYFLPPKTGTYTFGFATVDDSAILSVGGNVAFECCKQEQPPITSTDFTINGIKPWNADAPTDIKGSTYMYAGYYYPIKIVYSNAVSWGTLPVSVVLPDGTEVNDDFEGYVFSFDDNATQAHCSVPNPAEHARTCVSSATSSWSSSEVCTECTETESTSYVTPYVTSSSWSSSEVCTECTETESTSTSTPYVTSSSSSSSEVCTECTETESTSYVTPYVSSSTAAANYTSSFSSSSEVCTECTETESTSTSTPYVTSSSWSSSEVCTECTETESTSYVTPYVSSSTAAANYTSSFSSSSEVCTECTETESTSTSTPYVTSSSSSSSEVCTECTETESTSYVTPYVSSSTAAANYTSSFSSSSEVCTECTETESTSTSTPYVTSSSWSSSEVCTECTETESTSYVTPYVSSSTAAANYTSSFSSSSEVCTECTETESTSTSTPYATSSTGTATSFTASTSNTMTSLVQTDTTVSFSLSSTVSEHTNAPTSSVESNASTFISSNKGSVKSYVTSSIHSITPMYPSNQTVTSSSVVSTPITSESSESSASVTILPSTITSEFKPSTMKTKVVSISSSPTNLITSYDTTSKDSTVGSSTSSVSLISSISLPSSYSASSEQIFHSSIVSSNGQALTSFSSTKVSSSESSESHRTSPTTSSESGIKSSGVEIESTSTSSFSFHETSTASTSVQISSQFVTPSSPISTVAPRSTGLNSQTESTNSSKETMSSENSASVMPSSSATSPKTGKVTSDETSSGFSRDRTTVYRMTSETPSTNEQTTLITVSSCESNSCSNTVSSAVVSTATTTINGITTEYTTWCPLSATELTTVSKLESEEKTTLITVTSCESGVCSETASPAIVSTATATVNDVVTVYSTWSPQATNKLAVSSDIENSASKASFVSEAAETKSISRNNNFVPTSGTTSIETHTTTTSNASENSDNVSASEAVSSKSVTNPVLISVSQQPRGTPASSMIGSSTASLEMSSYLGIANHLLTNSGISIFIASLLLAIV
# Key:
# Experiment in all cases: glycan array binding signal (z-score within array); higher = stronger binding
# Settings in all cases: glycan notation: IUPAC condensed, linker removed
# [1] = target: GlcNAc6S(b1-3)Gal(b1-4)GlcNAc
# Procedure, shortened: (§1)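 The binding signal is a Z-score computed within each array and averaged over linkers. Arrays of the same protein sequence at different concentrations or buffers were also averaged together. Data originate from 3228 arrays in the Consortium for Functional Glycomics database, kept only where the protein sequence was available.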
# [2] = target: Kdn(a2-3)Gal(b1-3)GalNAc
# Procedure, shortened: as §1
# [3] = target: Kdn(a2-3)Gal(b1-3)GlcNAc
# Procedure, shortened: as §1
# [4] = target: Kdn(a2-3)Gal(b1-4)Glc
# Procedure, shortened: as §1
# [5] = target: Kdn(a2-3)Gal(b1-4)GlcNAc
# Procedure, shortened: as §1
# [6] = target: Kdn(a2-3)Gal(b1-4)[Fuc(a1-3)]GlcNAc
# Procedure, shortened: as §1
# [7] = target: Kdn(a2-6)Gal(b1-4)GlcNAc
# Procedure, shortened: as §1
# [8] = target: Man(a1-2)Man(a1-2)Man(a1-3)Man
# Procedure, shortened: as §1
# [9] = target: Man(a1-2)Man(a1-2)Man(a1-6)[Man(a1-3)]Man
# Procedure, shortened: as §1
# [10] = target: Man(a1-2)Man(a1-3)Man
# Procedure, shortened: as §1
# [11] = target: Man(a1-2)Man(a1-3)[Man(a1-2)Man(a1-6)]Man
# Procedure, shortened: as §1
# [12] = target: Man(a1-2)Man(a1-3)[Man(a1-2)Man(a1-6)]Man(a1-6)[Man(a1-2)Man(a1-2)Man(a1-3)]Man
# Procedure, shortened: as §1
# [13] = target: Man(a1-2)Man(a1-3)[Man(a1-2)Man(a1-6)]Man(a1-6)[Man(a1-2)Man(a1-2)Man(a1-3)]Man(b1-4)GlcNAc(b1-4)GlcNAc
# Procedure, shortened: as §1
# [14] = target: Man(a1-2)Man(a1-3)[Man(a1-6)]Man(a1-6)[Man(a1-2)Man(a1-3)]Man(b1-4)GlcNAc(b1-4)GlcNAc
# Procedure, shortened: as §1
# [15] = target: Man(a1-2)Man(a1-6)[Man(a1-3)]Man(a1-6)[Man(a1-2)Man(a1-2)Man(a1-3)]Man
# Procedure, shortened: as §1
# [16] = target: Man(a1-2)Man(a1-6)[Man(a1-3)]Man(a1-6)[Man(a1-2)Man(a1-2)Man(a1-3)]Man(b1-4)GlcNAc(b1-4)GlcNAc
# Procedure, shortened: as §1
# [17] = target: Man(a1-3)[Man(a1-6)]Man
# Procedure, shortened: as §1
# [18] = target: Man(a1-3)[Man(a1-6)]Man(a1-6)[Man(a1-2)Man(a1-3)]Man(b1-4)GlcNAc(b1-4)GlcNAc
# Procedure, shortened: as §1
# [19] = target: Man(a1-3)[Man(a1-6)]Man(a1-6)[Man(a1-3)]Man
# Procedure, shortened: as §1
# [20] = target: Man(a1-3)[Man(a1-6)]Man(a1-6)[Man(a1-3)]Man(b1-4)GlcNAc(b1-4)GlcNAc
# Procedure, shortened: as §1
# [21] = target: Man(a1-3)[Man(a1-6)]Man(b1-4)GlcNAc(b1-4)GlcNAc
# Procedure, shortened: as §1
# [22] = target: Man(a1-6)Man
# Procedure, shortened: as §1
binder,measurement,setting,value
B1,glycan array binding signal (z-score),[1],-0.057
same,glycan array binding signal (z-score),[2],0.113
same,glycan array binding signal (z-score),[3],-0.565
same,glycan array binding signal (z-score),[4],2.77
same,glycan array binding signal (z-score),[5],-0.202
same,glycan array binding signal (z-score),[6],2.08
same,glycan array binding signal (z-score),[7],0.854
same,glycan array binding signal (z-score),[8],-0.231
same,glycan array binding signal (z-score),[9],-0.531
same,glycan array binding signal (z-score),[10],-0.487
same,glycan array binding signal (z-score),[11],0.219
same,glycan array binding signal (z-score),[12],0.219
same,glycan array binding signal (z-score),[13],0.031
same,glycan array binding signal (z-score),[14],-0.671
same,glycan array binding signal (z-score),[15],-0.311
same,glycan array binding signal (z-score),[16],-0.712
same,glycan array binding signal (z-score),[17],-0.794
same,glycan array binding signal (z-score),[18],-0.706
same,glycan array binding signal (z-score),[19],-0.76
same,glycan array binding signal (z-score),[20],0.35
same,glycan array binding signal (z-score),[21],-1.83
same,glycan array binding signal (z-score),[22],0.265

# Reprinted at random: 2 entries already listed.
binder,measurement,setting,value
B1,glycan array binding signal (z-score),[15],-0.311
same,glycan array binding signal (z-score),[12],0.219
